Test results as given in publication doi:10.1101/2024.09.12.612777 (bioRxiv, 2024).
Where two headings read alike, the source gives them in different places. These are yes or no findings as the source states them, for the method shown. Some results given as binding are weak or reduced against the parent protein; the word gives no strength. For some of these results: Sequences can lack the tags named with a protein.

The chains behind the UniProt entries cited, without tags or fusion partners.
UniProt Q8RWY3: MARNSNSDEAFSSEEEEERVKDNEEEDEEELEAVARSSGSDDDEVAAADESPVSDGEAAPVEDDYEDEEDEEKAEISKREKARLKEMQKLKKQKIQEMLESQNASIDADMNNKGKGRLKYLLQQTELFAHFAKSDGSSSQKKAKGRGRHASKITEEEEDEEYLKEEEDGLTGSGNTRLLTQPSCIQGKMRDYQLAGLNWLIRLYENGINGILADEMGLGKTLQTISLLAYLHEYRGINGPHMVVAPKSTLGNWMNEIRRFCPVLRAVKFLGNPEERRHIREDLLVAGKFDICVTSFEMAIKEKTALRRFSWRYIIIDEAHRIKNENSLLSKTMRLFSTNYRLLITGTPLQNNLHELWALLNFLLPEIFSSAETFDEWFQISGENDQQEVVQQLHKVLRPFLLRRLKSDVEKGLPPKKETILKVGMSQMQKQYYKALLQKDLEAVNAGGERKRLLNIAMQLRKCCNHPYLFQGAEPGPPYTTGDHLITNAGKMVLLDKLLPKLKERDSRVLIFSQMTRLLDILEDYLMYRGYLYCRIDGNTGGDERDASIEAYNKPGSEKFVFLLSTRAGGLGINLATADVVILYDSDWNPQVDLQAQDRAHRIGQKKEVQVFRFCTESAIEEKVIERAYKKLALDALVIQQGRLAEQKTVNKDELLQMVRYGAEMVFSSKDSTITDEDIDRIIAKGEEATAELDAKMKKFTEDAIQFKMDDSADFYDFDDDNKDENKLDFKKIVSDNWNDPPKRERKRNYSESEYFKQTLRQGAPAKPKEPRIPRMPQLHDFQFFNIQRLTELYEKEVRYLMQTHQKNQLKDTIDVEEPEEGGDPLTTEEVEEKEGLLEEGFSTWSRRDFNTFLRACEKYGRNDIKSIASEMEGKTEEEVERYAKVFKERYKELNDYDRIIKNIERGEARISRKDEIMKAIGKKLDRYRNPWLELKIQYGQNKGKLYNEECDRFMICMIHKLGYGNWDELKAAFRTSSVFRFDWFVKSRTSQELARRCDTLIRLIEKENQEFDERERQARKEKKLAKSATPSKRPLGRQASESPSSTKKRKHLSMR

T1: AL2 (recombinant, pull-down) (Arabidopsis thaliana) (UniProt Q9SRM4)
T1 sequence: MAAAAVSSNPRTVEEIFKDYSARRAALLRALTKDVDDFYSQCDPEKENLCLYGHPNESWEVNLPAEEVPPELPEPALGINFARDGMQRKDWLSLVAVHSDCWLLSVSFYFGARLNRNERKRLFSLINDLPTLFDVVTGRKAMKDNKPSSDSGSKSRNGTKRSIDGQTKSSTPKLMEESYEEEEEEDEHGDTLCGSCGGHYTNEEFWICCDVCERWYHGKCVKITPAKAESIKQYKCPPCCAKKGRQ

B1: SNL2 (HDAC accessory subunit) (protein, UniProt Q9LFQ3 1-1367)
chain: MKRIRDDIYATGSQFKRPLGSSRGESYEQSPITGGGSIGEGGINTQKLTTDDALTYLKEVKEMFQDQRDKYDMFLEVMKDFKAQKTDTSGVISRVKELFKGHNNLIFGFNTFLPKGFEITLDDVEAPSKKTVEFEEAISFVNKIKTRFQHNELVYKSFLEILNMYRKDNKDITEVYNEVSTLFEDHSDLLEEFTRFLPDSLAPHTEAQLLRSQAQRYDDRGSGPPLVRRMFMEKDRRRERTVASRGDRDHSVDRSDLNDDKSMVKMHRDQRKRVDKDNRERRSRDLEDGEAEQDNLQHFSEKRKSSRRMEGFEAYSGPASHSEKNNLKSMYNQAFLFCEKVKERLCSQDDYQAFLKCLNMFSNGIIQRKDLQNLVSDVLGKFPDLMDEFNQFFERCESIDGFQHLAGVMSKKSLGSEENLSRSVKGEEKDREHKRDVEAAKEKERSKDKYMGKSIQELDLSDCERCTPSYRLLPPDYPIPSVRHRQKSGAAVLNDHWVSVTSGSEDYSFKHMRRNQYEESLFRCEDDRFELDMLLESVGSAAKSAEELLNIIIDKKISFEGSFRIEDHFTALNLRCIERLYGDHGLDVTDLIRKNPAAALPVILTRLKQKQDEWTKCREGFNVVWADVYAKNHYKSLDHRSFYFKQQDSKNLSAKALVSEVKDLKEKSQKEDDVVLSISAGYRQPIIPHLEYDYLDRAIHEDLFKLVQFSCEEICSTKEQTGKVLKLWANFLELMLDVAPRAKGSDSVEDVVETQHQRAFTSGEANESSDAISLVSRQLKFATNGDVHASSGVSKHGETGLLNRDSSGKENLKDGDLANKDVATCAEKPQKDQEIGNGAAKRSGDVDERVATSSSSFPSGVENNNGKVGSRDSSGSRGILSKPSEAIDKVDSIQHTQGVDIGRIIVLGNGLQSDTSKANSNYDESGGPSKIEKEEGELSPVGDSEDNFVVYEDRELKATAKTEHSVEAEGENDEDADDEDGDDASEAGEDASGTESIGDECSQDDNGVEEEGEHDEIDGKAESEGEAEGMESHLIEDKGLFPSSERVLLSVKPLSKHIAAAALVDEKKKDSRVFYGNDDFYVLFRLHRVSAIDSYDLLSHILYERILSAKTYCSGSEMKLRNTKDTCSPDPYARFMNALFSLLNGSAENSKFEDECRAIIGNQSYVLFTLEKLIYKLVKQLQAVVADDMDNKLLQLYEYENSRRPGRVFDSVYYENARILLHEENIYRLECSSSPSRLSIQLMDNIIEKPDAYAVSMEPTFTSYLQNEFLSNSSGKKELQDIVLQRNMRGYNGLDDLAVACKAMEGVQVINGLECKMSCSSYKISYVLDTEDFFHRKKKQKKSNNLSLAKLSQNRIARFHKFLSASR
B2: FLD (LSD-like histone demethylase) (protein, UniProt Q9CAE3 1-789)
chain: MVSFSAPKKRRRGRSQRSMSSLNSLPVPNVGLLPGNSNFVSSSASSSGRFNVEVVNGSNQTVKSYPGIGDEIITINKEATTEALLALTAGFPADSLTEEEIEFGVVPIVGGIEQVNYILIRNHIISKWRENISSWVTKEMFLNSIPKHCSSLLDSAYNYLVTHGYINFGIAQAIKDKFPAQSSKSSVIIVGAGLSGLAAARQLMRFGFKVTVLEGRKRPGGRVYTKKMEANRVGAAADLGGSVLTGTLGNPLGIIARQLGSSLYKVRDKCPLYRVDGKPVDPDVDIKVEVAFNQLLDKASKLRQLMGDVSMDVSLGAALETFRQVSGNDVATEEMGLFNWHLANLEYANAGLVSKLSLAFWDQDDPYDMGGDHCFLPGGNGRLVQALAENVPILYEKTVQTIRYGSNGVKVTAGNQVYEGDMVLCTVPLGVLKNGSIKFVPELPQRKLDCIKRLGFGLLNKVAMLFPYVFWSTDLDTFGHLTEDPNYRGEFFLFYSYAPVAGGALLIALVAGEAAHKFETMPPTDAVTRVLHILRGIYEPQGINVPDPLQTVCTRWGGDPFSLGSYSNVAVGASGDDYDILAESVGDGRLFFAGEATTRRYPATMHGAFVTGLREAANMAQSAKARGIRKRIDRNPSRNAHSCAILLADLFRDPDLEFGSFCIIFSRRNPDPKSPAILRVTLSEPRKRNEDPKADQHSNKILFQQLQSHFNQQQQIQVYTLLTRQQALDLREVRGGDEKRLYYLCETLGVKLVGRKGLGVGADSVIASIKAERTGRKLPSSSTSGTKSG
B3: SDG26 (histone methyltransferase, subunit of the AuPC complex) (protein, UniProt Q84WW6 1-492)
chain: MQFSCDPDQEGDELPQYEHIYQNDFSYRKHKKQKEEDISICECKFDFGDPDSACGERCLNVITNTECTPGYCPCGVYCKNQKFQKCEYAKTKLIKCEGRGWGLVALEEIKAGQFIMEYCGEVISWKEAKKRAQTYETHGVKDAYIISLNASEAIDATKKGSLARFINHSCRPNCETRKWNVLGEVRVGIFAKESISPRTELAYDYNFEWYGGAKVRCLCGAVACSGFLGAKSRGFQEDTYVWEDGDDRYSVDKIPVYDSAEDELTSEPSKNGESNTNEEKEKDISTENHLESTALNIQQQSDSTPTPMEEDVVTETVKTETSEDMKLLSQNSQEDSSPKTAIVSRVHGNISKIKSESLPKKRGRPFSGGKTKNVAQKHVDIANVVQLLATKEAQDEVLKYEEVKKEAAVRLSSLYDEIRPAIEEHERDSQDSVATSVAEKWIQASCNKLKAEFDLYSSVIKNIASTPIKPQDTKTKVAEAGNEDHIKLLEAK

Legend:
[1] = biological target: T1, AL2 (recombinant, pull-down) (Arabidopsis thaliana); experiment: pull-down
[2] = biological target: T1, AL2 (recombinant, pull-down) (Arabidopsis thaliana); experiment: pull-down; remark: listed apart in the source

Molecule | binding [1] | binding [2]
CHR11 (recombinant, pull-down) (from UniProt Q8RWY3 1-1056) | no binding | –
B1 | – | binds
B2 | – | binds
B3 | – | binds
